These are yes or no findings as the source states them, for the method shown. Binding can be weak; no strength is given.

Binding data for six substances are collected here from article PMC5945835.

In experiment [1] the target is BlRGA (Betula luminifera). Put plainly: two-hybrid; Matchmaker Golden Yeast Two-Hybrid System; BD fusions in Y2HGold and AD fusions in Y187, yeast mating; growth on SD-Leu-Trp-His-Ade plates with 40 ug/ml X-alpha-gal and 125 ng/ml Aureobasidin A, dilutions to 10^-1 and 10^-2.
In experiment [2] the target is BlRGL (Betula luminifera). The experiment is described as above.

With BlSPL1 (from UniProt L7X457), the binding result in experiment [1] and in experiment [2] was “binds” throughout.
In the case of BlSPL2 (from UniProt A0A2I6SES7), the binding entry in experiment [1] is “binds weakly”; in experiment [2], “binds”.
The matching figures for BlSPL5 (from UniProt A0A2I6SEU2): “binds” and “binds”.
For BlSPL6 (from UniProt A0A2I6SEU0), in that order: “binds” and “no binding”.
For BlSPL16 (from UniProt A0A2I6SEU8), in that order: “no binding” and “binds weakly”.
As to BlSPL18 (from UniProt A0A2I6SEV6), the binding entry in experiment [1] and in experiment [2] was “binds” throughout.
